The series deals with CD28 (Mus musculus (BALB/c spleen CD8+ T cells)) (UniProt P31041). Kind of series: flow cytometry cell bridging. The following applies: control NP without CD28 aptamer could not bridge CD8+ T cells and tumor cells; 2'-F on pyrimidines; Opti-MEM, 37 C, 2 h, 100 nM RNA NP, 10^5 CD8+ T cells and tumor cells 1:1; NPs annealed in 10 mM Tris, 50 mM NaCl, 1 mM EDTA, pH 7.5; protein on the cell surface; letters put together from the description. (A flow cytometer gives signals particle by particle.)

Amino acid sequences for entries named in this document (tags omitted). Residues count along the entry.
UniProt P31041, 20-218: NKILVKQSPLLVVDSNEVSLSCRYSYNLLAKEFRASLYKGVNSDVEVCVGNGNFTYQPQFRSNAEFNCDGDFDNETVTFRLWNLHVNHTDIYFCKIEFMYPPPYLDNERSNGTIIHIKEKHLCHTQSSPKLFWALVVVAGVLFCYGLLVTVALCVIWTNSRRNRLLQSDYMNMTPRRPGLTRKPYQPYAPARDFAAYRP

For at least one entry, the source does not settle the construct or the ends of the probe. Results from cells or extracts need not show a direct contact. A negative result means that nothing was seen under these conditions. At least one verdict was read from the data and is not stated in words by the source.

As to “GGGACAGCACACAGAGCAGCAGCUUGAGACUCAGCGUACUUCUGGCAAGGUACGGUACUUUUGCCAUGUGUAUGUGGGCGCAGACGGCGAUACCUAGUAGUCACCUAGUGCUCUAUCGUAGAAGUGUAGCAUGACGCC / GGGACCGAAAAAGACCUGACUUCUAUACUAAGUCUACGUUCCCGGCGUCAUGCUACACUUCUACGAUAGAGCACUAGGUGACUACUAGGUAUCGCCGUCUGCGCCCACAUACUUUGUUGAUCC / GGAUCAAUCAUGGCAAAAGUACCGUACCUUGCCAGAAGUACGCUGAGUCUCAAGCUGCUGCUCUGUGUGCUGUCCC [3WJ/PSMAapt RNA NP (no CD28 aptamer)]”, the binding result was “no binding”.

These data come from PMC8042240.
